The supplement of paper PMC6418307
Single values of this set are uncertain. Peptide text beside a SMILES is read from it. * marks the point of attachment. Cbz = O=C(OCc1ccccc1)*

Test system: primary mouse cortical neurons
Experiment: cell health score (luciferase spike-in reads / total reads per well) (fraction); higher = fewer cellular reads, worse cell health / toxicity
Conditions: treatment time 24 h
[1] = 0.01 µM, sex of neuron culture: Female
[2] = 0.01 µM, sex of neuron culture: Male
[3] = 0.1 µM, sex of neuron culture: Female
[4] = 0.1 µM, sex of neuron culture: Male
[5] = 1 µM, sex of neuron culture: Female
[6] = 1 µM, sex of neuron culture: Male
[7] = 10 µM, sex of neuron culture: Female
[8] = 10 µM, sex of neuron culture: Male

SMILES | cell health score [1] | cell health score [2] | cell health score [3] | cell health score [4] | cell health score [5] | cell health score [6] | cell health score [7] | cell health score [8]
CCCCCCOC(=O)[C@]1(O)C[C@@H]2O[C@@]1(C)n1c3ccccc3c3c4c(c5c6ccccc6n2c5c31)C(=O)NC4 [KT5720] | 0.000743 | 0.000756 | 0.00076 | 0.000703 | 0.000524 | 0.00109 | 0.00104 | 0.000606
CO/N=C(/C(=O)OC)c1ccccc1COc1ccccc1C [Kresoxim methyl] | 0.000514 | 0.000621 | 0.000925 | 0.000854 | 0.00116 | 0.00173 | 0.0169 | 0.00609
CCOC(=O)C(C)OC(=O)c1cc(Oc2ccc(C(F)(F)F)cc2Cl)ccc1[N+](=O)[O-] (stereo not drawn) [Lactofen] | 0.000546 | 0.000854 | 0.000921 | 0.000902 | 0.00112 | 0.000853 | 0.00111 | 0.00149
O=[N+]([O-])[O-].O=[N+]([O-])[O-].[Pb+2] [Lead (II) Nitrate] | 0.000475 | 0.000744 | 0.000654 | 0.00162 | 0.000703 | 0.000681 | 0.000491 | 0.000507
C[C@H]1COc2c(N3CCN(C)CC3)c(F)cc3c(=O)c(C(=O)O)cn1c23 [Levofloxacin] | 0.000469 | 0.000682 | 0.000882 | 0.000681 | 0.000832 | 0.000569 | 0.000862 | 0.000722
Cl[C@H]1[C@H](Cl)[C@@H](Cl)[C@@H](Cl)[C@H](Cl)[C@H]1Cl [Lindane] | 0.000947 | 0.000582 | 0.00112 | 0.00108 | 0.000564 | 0.000698 | 0.000689 | 0.000614
CON(C)C(=O)Nc1ccc(Cl)c(Cl)c1 [Linuron] | 0.000448 | 0.000586 | 0.000885 | 0.000566 | 0.00103 | 0.000877 | 0.00111 | 0.000704
CC(C)C[C@@H](C=O)NC(=O)[C@H](CC(C)C)NC(=O)[C@H](CC(C)C)NC(=O)OCc1ccccc1 [MG132] (Cbz-Leu-Leu-Leu-aldehyde) | 0.0019 | 0.00164 | 0.00396 | 0.00224 | 0.00394 | 0.00138 | 0.00517 | 0.00334
CCCCC(CC)CN1C(=O)[C@@H]2[C@H](C1=O)[C@@H]1C=C[C@H]2C1 (stereo partly drawn) [MGK-264] | 0.000584 | 0.000546 | 0.000762 | 0.000916 | 0.000962 | 0.000403 | 0.0011 | 0.000441
CCOC(=O)CC(SP(=O)(OC)OC)C(=O)OCC (stereo not drawn) [Malaoxon] | 0.000463 | 0.000951 | 0.00169 | 0.000755 | 0.000856 | 0.000708 | 0.00092 | 0.00049
CCOC(=O)CC(SP(=S)(OC)OC)C(=O)OCC (stereo not drawn) [Malathion] | 0.000601 | 0.000753 | 0.000613 | 0.000687 | 0.000992 | 0.000386 | 0.000894 | 0.000469
S=C([S-])NCCNC(=S)[S-].S=C([S-])NCCNC(=S)[S-].[Mn+2].[Zn+2] [Mancozeb] | 0.000584 | 0.000801 | 0.000738 | 0.000656 | 0.000854 | 0.000594 | 0.000768 | 0.000579
S=C([S-])NCCNC(=S)[S-].[Mn+2] [Maneb] | 0.000607 | 0.000578 | 0.000687 | 0.000834 | 0.000699 | 0.00111 | 0.000992 | 0.000882
C[N+]1(C)CCCCC1 [Mepiquat chloride] | 0.000597 | 0.000473 | 0.000869 | 0.00114 | 0.000617 | 0.000534 | 0.00122 | 0.000499
CS(=O)(=O)c1ccc(C(=O)C2C(=O)CCCC2=O)c([N+](=O)[O-])c1 [Mesotrione] | 0.00082 | 0.000851 | 0.00148 | 0.00107 | 0.000695 | 0.000655 | 0.00115 | 0.000508
COCC(=O)N(c1c(C)cccc1C)C(C)C(=O)OC (stereo not drawn) [Metalaxyl] | 0.000644 | 0.000678 | 0.000779 | 0.000781 | 0.00111 | 0.000725 | 0.00128 | 0.000568
CNC(=S)S [Metam-sodium hydrate] | 0.000614 | 0.00115 | 0.00079 | 0.000766 | 0.00132 | 0.000703 | 0.00101 | 0.000412
COP(N)(=O)SC (stereo not drawn) [Methamidophos] | 0.000556 | 0.00078 | 0.000888 | 0.000627 | 0.000728 | 0.000618 | 0.00107 | 0.00041
COc1nn(CSP(=S)(OC)OC)c(=O)s1 [Methidathion] | 0.000398 | 0.000869 | 0.00175 | 0.000912 | 0.000851 | 0.000591 | 0.00141 | 0.000468
CNC(=O)ON=C(C)SC [Methomyl] | 0.000677 | 0.00071 | 0.000501 | 0.000794 | 0.000731 | 0.000689 | 0.00141 | 0.000658
COc1ccc(C(c2ccc(OC)cc2)C(Cl)(Cl)Cl)cc1 [Methoxychlor] | 0.000409 | 0.000911 | 0.000709 | 0.000898 | 0.000722 | 0.000806 | 0.001 | 0.000706

Part of the list above in order of length of the SMILES, high to low:
SMILES | cell health score [1] | cell health score [2] | cell health score [3] | cell health score [4] | cell health score [5] | cell health score [6] | cell health score [7] | cell health score [8]
Cl[C@H]1[C@H](Cl)[C@@H](Cl)[C@@H](Cl)[C@H](Cl)[C@H]1Cl [Lindane] | 0.000947 | 0.000582 | 0.00112 | 0.00108 | 0.000564 | 0.000698 | 0.000689 | 0.000614
COCC(=O)N(c1c(C)cccc1C)C(C)C(=O)OC (stereo not drawn) [Metalaxyl] | 0.000644 | 0.000678 | 0.000779 | 0.000781 | 0.00111 | 0.000725 | 0.00128 | 0.000568
COP(N)(=O)SC (stereo not drawn) [Methamidophos] | 0.000556 | 0.00078 | 0.000888 | 0.000627 | 0.000728 | 0.000618 | 0.00107 | 0.00041
